This note sets out measurements from paper PMC3161984.

The chains behind the UniProt entries cited, without tags or fusion partners.
UniProt P06428: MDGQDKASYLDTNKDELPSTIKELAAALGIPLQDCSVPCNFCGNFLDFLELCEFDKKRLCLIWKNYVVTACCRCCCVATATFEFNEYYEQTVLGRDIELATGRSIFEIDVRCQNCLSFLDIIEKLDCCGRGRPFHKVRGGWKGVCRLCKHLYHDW
UniProt P03126: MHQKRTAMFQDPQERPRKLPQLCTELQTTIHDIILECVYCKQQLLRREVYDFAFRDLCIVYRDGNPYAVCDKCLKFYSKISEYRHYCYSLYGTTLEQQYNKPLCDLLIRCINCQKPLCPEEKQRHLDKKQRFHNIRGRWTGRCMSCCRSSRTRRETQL
UniProt Q92793: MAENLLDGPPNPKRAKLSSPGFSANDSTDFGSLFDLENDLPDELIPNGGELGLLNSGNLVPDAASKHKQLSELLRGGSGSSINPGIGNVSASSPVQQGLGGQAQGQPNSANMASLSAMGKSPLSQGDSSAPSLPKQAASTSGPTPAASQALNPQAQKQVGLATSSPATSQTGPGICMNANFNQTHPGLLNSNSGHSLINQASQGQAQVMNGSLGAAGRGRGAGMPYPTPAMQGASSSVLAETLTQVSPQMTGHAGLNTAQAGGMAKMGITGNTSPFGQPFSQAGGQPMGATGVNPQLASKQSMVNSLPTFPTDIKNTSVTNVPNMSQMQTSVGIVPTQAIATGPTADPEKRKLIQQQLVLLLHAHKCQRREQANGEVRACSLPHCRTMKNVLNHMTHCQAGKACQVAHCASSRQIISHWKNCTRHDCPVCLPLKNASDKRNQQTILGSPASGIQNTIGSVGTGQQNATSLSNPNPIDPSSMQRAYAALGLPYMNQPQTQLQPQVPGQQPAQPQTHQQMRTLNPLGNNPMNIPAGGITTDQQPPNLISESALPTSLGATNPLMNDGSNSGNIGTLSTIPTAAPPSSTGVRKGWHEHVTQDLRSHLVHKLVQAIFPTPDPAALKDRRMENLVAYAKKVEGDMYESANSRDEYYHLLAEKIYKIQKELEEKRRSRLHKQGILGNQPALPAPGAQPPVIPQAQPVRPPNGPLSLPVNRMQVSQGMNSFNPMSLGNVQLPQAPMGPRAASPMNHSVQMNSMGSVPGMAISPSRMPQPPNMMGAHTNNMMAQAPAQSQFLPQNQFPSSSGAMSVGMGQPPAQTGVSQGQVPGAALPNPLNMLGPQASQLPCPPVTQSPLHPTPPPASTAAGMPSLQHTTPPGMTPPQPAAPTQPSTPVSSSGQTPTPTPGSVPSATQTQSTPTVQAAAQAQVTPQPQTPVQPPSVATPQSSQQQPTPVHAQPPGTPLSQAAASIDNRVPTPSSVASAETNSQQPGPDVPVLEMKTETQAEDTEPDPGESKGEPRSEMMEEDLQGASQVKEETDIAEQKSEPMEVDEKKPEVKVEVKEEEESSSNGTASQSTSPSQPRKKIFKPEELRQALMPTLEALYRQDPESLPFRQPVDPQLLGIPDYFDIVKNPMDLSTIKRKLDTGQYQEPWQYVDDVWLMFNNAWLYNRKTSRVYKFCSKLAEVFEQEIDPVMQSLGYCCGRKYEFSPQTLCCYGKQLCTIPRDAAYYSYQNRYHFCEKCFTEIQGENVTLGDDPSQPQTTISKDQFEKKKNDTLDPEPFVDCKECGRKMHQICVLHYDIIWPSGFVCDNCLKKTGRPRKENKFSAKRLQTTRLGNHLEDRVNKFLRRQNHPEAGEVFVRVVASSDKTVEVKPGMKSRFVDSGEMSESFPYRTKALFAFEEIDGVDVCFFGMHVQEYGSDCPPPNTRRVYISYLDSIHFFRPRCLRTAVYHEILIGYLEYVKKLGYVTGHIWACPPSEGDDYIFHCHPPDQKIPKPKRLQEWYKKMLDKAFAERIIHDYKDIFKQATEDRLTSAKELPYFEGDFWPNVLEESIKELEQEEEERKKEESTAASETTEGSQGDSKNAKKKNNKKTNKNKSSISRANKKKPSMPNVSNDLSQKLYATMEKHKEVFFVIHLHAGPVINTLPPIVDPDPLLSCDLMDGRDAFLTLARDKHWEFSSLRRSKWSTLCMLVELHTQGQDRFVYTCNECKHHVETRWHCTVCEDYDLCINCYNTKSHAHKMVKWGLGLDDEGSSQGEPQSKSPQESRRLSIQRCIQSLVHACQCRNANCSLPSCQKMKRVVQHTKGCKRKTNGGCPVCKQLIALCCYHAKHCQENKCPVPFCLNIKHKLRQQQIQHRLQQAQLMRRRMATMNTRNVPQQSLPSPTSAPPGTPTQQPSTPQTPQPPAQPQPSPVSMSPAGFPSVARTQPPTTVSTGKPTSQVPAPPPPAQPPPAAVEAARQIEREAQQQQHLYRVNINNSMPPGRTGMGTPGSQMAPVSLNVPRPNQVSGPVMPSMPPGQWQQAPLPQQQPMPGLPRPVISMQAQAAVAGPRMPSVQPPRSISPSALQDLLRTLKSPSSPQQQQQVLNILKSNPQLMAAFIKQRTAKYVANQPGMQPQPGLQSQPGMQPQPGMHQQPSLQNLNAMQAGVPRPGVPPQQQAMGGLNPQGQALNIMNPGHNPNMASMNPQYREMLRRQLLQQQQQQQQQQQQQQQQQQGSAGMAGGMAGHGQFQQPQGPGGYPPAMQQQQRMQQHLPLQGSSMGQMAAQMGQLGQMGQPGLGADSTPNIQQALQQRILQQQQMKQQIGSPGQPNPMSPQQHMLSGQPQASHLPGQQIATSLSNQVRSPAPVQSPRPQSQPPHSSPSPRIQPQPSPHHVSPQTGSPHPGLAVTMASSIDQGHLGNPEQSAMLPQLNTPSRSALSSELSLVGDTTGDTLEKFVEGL
UniProt Q09472: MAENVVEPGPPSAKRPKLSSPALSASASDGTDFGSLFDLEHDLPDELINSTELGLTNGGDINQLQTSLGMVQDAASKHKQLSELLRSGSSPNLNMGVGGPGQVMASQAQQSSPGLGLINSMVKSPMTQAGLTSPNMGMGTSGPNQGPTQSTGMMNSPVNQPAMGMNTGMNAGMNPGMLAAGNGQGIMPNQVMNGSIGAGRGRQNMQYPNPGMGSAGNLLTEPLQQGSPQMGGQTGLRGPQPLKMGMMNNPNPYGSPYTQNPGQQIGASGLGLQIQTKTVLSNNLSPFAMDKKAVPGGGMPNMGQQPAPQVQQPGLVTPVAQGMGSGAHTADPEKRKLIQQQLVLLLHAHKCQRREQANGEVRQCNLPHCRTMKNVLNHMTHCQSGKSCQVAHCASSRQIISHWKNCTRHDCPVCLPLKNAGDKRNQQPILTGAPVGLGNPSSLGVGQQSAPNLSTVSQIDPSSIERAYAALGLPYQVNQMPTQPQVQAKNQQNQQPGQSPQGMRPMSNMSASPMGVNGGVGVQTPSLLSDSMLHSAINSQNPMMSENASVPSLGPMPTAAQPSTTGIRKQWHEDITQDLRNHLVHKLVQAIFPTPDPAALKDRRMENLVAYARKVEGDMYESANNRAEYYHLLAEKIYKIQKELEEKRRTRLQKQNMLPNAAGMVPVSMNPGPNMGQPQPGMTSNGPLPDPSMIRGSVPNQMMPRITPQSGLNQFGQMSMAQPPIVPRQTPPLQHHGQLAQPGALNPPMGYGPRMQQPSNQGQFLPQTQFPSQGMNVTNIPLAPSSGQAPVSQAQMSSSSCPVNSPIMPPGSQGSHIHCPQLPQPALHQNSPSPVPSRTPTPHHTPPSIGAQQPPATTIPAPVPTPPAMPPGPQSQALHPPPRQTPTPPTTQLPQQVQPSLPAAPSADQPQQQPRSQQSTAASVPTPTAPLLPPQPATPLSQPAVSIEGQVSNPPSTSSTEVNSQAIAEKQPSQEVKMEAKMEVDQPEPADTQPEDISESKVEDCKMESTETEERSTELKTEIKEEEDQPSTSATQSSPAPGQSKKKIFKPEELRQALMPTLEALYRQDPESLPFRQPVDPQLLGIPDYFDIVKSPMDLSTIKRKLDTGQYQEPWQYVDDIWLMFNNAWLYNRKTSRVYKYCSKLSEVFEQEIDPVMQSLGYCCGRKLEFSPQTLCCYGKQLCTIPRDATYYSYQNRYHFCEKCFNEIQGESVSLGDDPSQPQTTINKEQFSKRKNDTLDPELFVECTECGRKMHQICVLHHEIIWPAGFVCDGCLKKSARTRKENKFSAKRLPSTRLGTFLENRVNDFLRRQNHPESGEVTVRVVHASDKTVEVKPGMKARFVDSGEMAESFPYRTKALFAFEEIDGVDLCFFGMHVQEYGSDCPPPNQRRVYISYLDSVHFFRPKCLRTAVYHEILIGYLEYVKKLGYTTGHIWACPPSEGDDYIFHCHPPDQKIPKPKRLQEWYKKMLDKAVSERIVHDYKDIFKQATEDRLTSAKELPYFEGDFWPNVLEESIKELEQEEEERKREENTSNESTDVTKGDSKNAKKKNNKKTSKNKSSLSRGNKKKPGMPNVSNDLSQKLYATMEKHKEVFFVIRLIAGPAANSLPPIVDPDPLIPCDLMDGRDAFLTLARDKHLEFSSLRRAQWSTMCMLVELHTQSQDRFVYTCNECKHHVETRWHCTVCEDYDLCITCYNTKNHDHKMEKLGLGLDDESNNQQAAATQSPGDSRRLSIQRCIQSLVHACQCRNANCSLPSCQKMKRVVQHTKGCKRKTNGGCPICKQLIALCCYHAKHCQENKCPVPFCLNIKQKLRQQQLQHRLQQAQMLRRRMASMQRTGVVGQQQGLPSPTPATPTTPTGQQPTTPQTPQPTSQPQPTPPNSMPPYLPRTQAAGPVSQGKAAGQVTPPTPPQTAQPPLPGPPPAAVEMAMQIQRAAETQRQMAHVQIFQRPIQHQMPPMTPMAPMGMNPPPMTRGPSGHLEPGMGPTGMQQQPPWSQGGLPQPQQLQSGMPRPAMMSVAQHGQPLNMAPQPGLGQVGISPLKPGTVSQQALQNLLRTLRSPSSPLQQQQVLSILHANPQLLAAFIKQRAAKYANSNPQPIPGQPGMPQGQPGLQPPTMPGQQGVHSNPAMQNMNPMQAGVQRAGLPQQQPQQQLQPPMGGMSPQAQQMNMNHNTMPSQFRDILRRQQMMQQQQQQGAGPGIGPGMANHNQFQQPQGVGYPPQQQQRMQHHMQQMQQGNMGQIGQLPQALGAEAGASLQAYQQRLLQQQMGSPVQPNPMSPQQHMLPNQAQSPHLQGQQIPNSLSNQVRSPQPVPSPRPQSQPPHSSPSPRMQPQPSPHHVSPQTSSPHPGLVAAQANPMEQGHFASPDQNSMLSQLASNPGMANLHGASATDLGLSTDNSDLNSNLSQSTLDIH

Test [1] has as its target GST-tagged E6 protein from β-HPV type 8 (human papillomavirus type 8) (UniProt P06428). Briefly: affinity purification with mass spectrometry; only the target purified.
For test [2], the target named is GST-tagged E6 protein from α-HPV type 16 (human papillomavirus type 16) (UniProt P03126). The description is as above.

No constants are given. Whether binding was seen depends on the method and setting. Binding seen in cells or lysates may run through a third protein. These calls come from enrichment with a bait or labelling near it, and not all partners need be listed. For part of these data: No binding means not detected with the bait.

With “CBP (endogenous) (from UniProt Q92793 1-2442)”, the binding result in test [1] was “binds”; in test [2], “no binding”.
Take “histone acetyltransferase p300 (endogenous) (from UniProt Q09472 1-2414)”: in test [1], the binding entry is “binds”.
